Reference: PubChem BioAssay AID652259 (Drosophila RNAi Screening Center, 2013)
Screen: 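Identify new Wingless signalling regulators in fly cells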 (primary screen). System: Drosophila clone 8 imaginal disc epithelial cells. Knock-down reagent: long dsRNA against Drosophila genes. Treatment: pathway stimulated by co-transfected Wingless expression plasmid. Measurement: 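Dual luciferase reads per well after Wingless plasmid stimulation: reporter firefly light and Renilla control light; activity is firefly divided by Renilla, a ratio not deposited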. Direction: firefly reporter light: higher = more Wg reporter light, before normalisation; Renilla control light: higher = more transfected or surviving cells. Rule for the call: 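a knock-down is a candidate when at least two out of four statistical tests show it departing from its plate mean; one test alone signals a weak candidate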. Calls: active = candidate regulator (raises or lowers reporter); inactive = not a candidate.
In all, the deposit lists about 22,000 reagents; this is a random part of those that have a named target and a result. Of all reagents, 233 (1.1%) were called active. 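Light values are raw, unnormalised plate reads; the ratio scores behind the reporter calls were not deposited.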 Unmarked entries are inactive. Not given: the amount of reagent, the time to read-out, the dose of the treatment.

With knock-down of CG9389 (GeneID 40347) [DRSC11857] the results were firefly reporter light, replicate 1 = 3837; Renilla control light, replicate 1 = 1629. Against Trissin (GeneID 41890) [DRSC14994], the entry reads firefly reporter light, replicate 1 = 19461; Renilla control light, replicate 1 = 6145. With knock-down of Frq2 (GeneID 32799) [DRSC20245] the results were firefly reporter light, replicate 1 = 24085; Renilla control light, replicate 1 = 9173. nrm (GeneID 40515) [DRSC11597] gave firefly reporter light, replicate 1 = 2125; Renilla control light, replicate 1 = 845. After knock-down of nrm (GeneID 40515) [DRSC11599] the results were firefly reporter light, replicate 1 = 3525; Renilla control light, replicate 1 = 1200. After knock-down of nrm (GeneID 40515) [DRSC11897], the record shows firefly reporter light, replicate 1 = 15333; Renilla control light, replicate 1 = 4962.

wntD (GeneID 41633) [DRSC16423] showed firefly reporter light, replicate 1 = 11989; Renilla control light, replicate 1 = 2473. For Sec61beta (GeneID 46080) [DRSC07548] the deposit lists reporter change call, replicate 1 = Wg reporter activity lowered; firefly reporter light, replicate 1 = 8983; Renilla control light, replicate 1 = 4070. For Sec61beta (GeneID 46080) [DRSC21512] the deposit lists firefly reporter light, replicate 1 = 2.94e5; firefly reporter light, replicate 2 = 3.75e5; Renilla control light, replicate 1 = 1.26e5; Renilla control light, replicate 2 = 1.15e5. After knock-down of fln (GeneID 40185) [DRSC11346], the screen gave firefly reporter light, replicate 1 = 8459; Renilla control light, replicate 1 = 3073. Depletion of Sgsh (GeneID 42266) [DRSC14771] resulted in: firefly reporter light, replicate 1 = 7572; Renilla control light, replicate 1 = 1367. For CG31810 (GeneID 318955) [DRSC01560] the deposit lists firefly reporter light, replicate 1 = 18100; Renilla control light, replicate 1 = 8528.

After knock-down of Nelf-A (GeneID 42520) [DRSC15903], the screen gave firefly reporter light, replicate 1 = 5144; firefly reporter light, replicate 2 = 8681; Renilla control light, replicate 1 = 1872; Renilla control light, replicate 2 = 2711. Kap-alpha3 (GeneID 41158) [DRSC16976] gave firefly reporter light, replicate 1 = 17526; Renilla control light, replicate 1 = 2537. Knock-down of Cpr67Fb (GeneID 39225) [DRSC10314] came out at: firefly reporter light, replicate 1 = 4711; Renilla control light, replicate 1 = 1924. Silencing of ProtB (GeneID 34867) [DRSC03373] resulted in: firefly reporter light, replicate 1 = 2189; firefly reporter light, replicate 2 = 6016; Renilla control light, replicate 1 = 625; Renilla control light, replicate 2 = 2669. For Cpr76Ba (GeneID 40120) [DRSC11060] the deposit lists firefly reporter light, replicate 1 = 13779; Renilla control light, replicate 1 = 2922.

Targets above whose gene name starts with S or s (3):
Sec61beta (GeneID 46080) [DRSC07548] | reporter change call, replicate 1: Wg reporter activity lowered; firefly reporter light, replicate 1: 8983; Renilla control light, replicate 1: 4070
Sec61beta (GeneID 46080) [DRSC21512] | firefly reporter light, replicate 1: 2.94e5; firefly reporter light, replicate 2: 3.75e5; Renilla control light, replicate 1: 1.26e5; Renilla control light, replicate 2: 1.15e5
Sgsh (GeneID 42266) [DRSC14771] | firefly reporter light, replicate 1: 7572; Renilla control light, replicate 1: 1367
